Results are given in words; binding and its absence hold for the method and conditions named. Binding seen in cells or lysates may run through a third protein. A yes stands for co-enrichment or nearness to the bait. Other partners may have been found.
What follows are substances tested against HA-V1B2 (HA-tagged V-ATPase V1 domain subunit B2, Atp6v1b2) (mouse) (UniProt P62814) (assay: affinity purification with mass spectrometry; anti-HA magnetic beads, HA-V1B2 as bait; lysates of MEFs expressing HA-V1B2 against control; label-free LC-MS (DDA, MaxQuant)).

Protein sequences, listed by entry. Tags and fused reporters are not part of them.
UniProt P62814: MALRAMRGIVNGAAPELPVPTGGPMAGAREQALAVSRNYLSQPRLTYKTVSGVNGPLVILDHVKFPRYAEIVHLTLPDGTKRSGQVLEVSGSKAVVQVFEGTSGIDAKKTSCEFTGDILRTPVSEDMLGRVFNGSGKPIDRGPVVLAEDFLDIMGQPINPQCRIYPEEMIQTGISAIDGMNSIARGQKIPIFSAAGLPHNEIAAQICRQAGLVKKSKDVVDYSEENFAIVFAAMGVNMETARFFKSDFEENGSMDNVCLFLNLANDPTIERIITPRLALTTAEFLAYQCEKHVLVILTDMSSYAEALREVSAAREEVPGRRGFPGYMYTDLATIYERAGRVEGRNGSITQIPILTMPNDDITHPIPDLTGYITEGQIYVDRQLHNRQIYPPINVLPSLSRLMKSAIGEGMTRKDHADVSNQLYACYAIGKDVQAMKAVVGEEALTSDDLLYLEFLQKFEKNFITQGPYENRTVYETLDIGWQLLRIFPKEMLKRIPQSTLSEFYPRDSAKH
UniProt Q6PNC0: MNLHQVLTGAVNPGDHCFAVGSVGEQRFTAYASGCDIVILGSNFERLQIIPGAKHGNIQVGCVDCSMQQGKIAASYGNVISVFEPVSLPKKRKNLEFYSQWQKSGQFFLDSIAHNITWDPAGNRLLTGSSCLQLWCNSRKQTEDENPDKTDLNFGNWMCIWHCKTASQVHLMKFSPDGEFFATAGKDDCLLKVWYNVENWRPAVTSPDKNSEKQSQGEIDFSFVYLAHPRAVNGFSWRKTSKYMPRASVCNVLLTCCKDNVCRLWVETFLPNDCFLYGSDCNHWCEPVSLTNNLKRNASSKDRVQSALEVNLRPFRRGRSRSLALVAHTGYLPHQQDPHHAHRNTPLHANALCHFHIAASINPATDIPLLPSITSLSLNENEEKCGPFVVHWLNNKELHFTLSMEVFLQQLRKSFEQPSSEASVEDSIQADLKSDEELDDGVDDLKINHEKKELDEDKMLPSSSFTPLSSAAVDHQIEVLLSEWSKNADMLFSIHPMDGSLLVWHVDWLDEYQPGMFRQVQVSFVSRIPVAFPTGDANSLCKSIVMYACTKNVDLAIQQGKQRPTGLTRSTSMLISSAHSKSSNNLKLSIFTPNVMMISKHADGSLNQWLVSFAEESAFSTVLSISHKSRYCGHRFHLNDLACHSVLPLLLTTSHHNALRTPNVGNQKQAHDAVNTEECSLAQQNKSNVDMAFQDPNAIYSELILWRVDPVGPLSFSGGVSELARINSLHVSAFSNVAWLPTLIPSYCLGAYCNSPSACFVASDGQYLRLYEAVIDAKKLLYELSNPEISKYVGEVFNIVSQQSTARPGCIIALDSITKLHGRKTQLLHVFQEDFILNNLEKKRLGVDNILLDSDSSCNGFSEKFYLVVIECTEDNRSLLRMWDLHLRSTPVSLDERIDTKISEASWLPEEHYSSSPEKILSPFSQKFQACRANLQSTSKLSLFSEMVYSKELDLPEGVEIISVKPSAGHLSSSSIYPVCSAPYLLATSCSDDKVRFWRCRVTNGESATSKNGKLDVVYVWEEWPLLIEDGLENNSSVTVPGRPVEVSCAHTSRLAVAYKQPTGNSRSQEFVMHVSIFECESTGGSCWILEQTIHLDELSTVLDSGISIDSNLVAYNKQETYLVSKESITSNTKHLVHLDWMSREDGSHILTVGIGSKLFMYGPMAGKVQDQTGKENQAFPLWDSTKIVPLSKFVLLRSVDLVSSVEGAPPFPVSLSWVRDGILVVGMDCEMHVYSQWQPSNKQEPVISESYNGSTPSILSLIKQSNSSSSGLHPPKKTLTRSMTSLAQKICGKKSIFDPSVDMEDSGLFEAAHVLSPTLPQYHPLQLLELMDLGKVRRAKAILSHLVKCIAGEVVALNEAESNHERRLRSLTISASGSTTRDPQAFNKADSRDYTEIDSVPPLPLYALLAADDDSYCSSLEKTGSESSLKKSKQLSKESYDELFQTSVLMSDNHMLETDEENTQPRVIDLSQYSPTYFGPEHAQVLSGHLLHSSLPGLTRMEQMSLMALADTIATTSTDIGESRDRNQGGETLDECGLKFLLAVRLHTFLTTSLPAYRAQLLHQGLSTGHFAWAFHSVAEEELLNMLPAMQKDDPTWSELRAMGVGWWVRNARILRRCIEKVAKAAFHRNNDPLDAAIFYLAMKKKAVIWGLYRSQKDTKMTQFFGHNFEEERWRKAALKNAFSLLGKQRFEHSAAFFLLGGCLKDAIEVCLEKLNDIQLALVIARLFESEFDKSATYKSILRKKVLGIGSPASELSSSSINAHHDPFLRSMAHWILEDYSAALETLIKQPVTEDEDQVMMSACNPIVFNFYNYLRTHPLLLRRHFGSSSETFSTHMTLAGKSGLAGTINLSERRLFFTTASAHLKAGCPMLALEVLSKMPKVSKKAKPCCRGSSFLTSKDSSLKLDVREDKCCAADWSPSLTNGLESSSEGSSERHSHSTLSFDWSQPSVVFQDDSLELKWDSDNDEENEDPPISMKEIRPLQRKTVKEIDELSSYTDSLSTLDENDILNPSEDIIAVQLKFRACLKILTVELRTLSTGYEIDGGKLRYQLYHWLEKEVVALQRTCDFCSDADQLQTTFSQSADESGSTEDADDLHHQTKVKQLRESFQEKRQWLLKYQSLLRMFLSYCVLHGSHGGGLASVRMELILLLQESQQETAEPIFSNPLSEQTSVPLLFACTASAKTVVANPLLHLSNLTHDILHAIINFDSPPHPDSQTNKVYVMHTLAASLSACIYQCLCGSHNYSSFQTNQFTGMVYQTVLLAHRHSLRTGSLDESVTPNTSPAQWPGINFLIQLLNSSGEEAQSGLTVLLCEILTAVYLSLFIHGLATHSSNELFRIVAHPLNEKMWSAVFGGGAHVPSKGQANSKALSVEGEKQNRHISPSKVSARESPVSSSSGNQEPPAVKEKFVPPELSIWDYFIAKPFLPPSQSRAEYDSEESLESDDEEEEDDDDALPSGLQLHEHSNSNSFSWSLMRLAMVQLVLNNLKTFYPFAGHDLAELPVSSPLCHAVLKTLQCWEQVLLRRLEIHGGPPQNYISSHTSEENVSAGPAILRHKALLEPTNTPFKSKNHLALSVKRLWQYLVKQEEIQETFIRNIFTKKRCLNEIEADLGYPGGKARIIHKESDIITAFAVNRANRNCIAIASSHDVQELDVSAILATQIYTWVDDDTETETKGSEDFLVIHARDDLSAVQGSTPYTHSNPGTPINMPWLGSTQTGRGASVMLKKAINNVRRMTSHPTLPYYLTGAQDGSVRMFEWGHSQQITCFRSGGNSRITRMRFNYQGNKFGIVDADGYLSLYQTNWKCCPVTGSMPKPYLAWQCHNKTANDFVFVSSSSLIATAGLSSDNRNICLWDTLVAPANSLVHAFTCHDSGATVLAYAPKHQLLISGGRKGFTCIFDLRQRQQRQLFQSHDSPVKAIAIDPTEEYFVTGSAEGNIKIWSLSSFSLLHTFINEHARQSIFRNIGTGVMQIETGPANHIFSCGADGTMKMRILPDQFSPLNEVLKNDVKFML
UniProt Q3TDK6: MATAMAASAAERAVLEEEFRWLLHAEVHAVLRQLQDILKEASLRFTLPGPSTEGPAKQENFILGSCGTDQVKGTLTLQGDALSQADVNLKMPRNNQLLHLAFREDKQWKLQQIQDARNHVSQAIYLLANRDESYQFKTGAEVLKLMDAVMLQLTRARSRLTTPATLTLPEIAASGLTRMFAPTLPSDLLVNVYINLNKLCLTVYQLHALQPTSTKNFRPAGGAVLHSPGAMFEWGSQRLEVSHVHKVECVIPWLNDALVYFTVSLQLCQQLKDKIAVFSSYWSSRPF
UniProt Q920I9: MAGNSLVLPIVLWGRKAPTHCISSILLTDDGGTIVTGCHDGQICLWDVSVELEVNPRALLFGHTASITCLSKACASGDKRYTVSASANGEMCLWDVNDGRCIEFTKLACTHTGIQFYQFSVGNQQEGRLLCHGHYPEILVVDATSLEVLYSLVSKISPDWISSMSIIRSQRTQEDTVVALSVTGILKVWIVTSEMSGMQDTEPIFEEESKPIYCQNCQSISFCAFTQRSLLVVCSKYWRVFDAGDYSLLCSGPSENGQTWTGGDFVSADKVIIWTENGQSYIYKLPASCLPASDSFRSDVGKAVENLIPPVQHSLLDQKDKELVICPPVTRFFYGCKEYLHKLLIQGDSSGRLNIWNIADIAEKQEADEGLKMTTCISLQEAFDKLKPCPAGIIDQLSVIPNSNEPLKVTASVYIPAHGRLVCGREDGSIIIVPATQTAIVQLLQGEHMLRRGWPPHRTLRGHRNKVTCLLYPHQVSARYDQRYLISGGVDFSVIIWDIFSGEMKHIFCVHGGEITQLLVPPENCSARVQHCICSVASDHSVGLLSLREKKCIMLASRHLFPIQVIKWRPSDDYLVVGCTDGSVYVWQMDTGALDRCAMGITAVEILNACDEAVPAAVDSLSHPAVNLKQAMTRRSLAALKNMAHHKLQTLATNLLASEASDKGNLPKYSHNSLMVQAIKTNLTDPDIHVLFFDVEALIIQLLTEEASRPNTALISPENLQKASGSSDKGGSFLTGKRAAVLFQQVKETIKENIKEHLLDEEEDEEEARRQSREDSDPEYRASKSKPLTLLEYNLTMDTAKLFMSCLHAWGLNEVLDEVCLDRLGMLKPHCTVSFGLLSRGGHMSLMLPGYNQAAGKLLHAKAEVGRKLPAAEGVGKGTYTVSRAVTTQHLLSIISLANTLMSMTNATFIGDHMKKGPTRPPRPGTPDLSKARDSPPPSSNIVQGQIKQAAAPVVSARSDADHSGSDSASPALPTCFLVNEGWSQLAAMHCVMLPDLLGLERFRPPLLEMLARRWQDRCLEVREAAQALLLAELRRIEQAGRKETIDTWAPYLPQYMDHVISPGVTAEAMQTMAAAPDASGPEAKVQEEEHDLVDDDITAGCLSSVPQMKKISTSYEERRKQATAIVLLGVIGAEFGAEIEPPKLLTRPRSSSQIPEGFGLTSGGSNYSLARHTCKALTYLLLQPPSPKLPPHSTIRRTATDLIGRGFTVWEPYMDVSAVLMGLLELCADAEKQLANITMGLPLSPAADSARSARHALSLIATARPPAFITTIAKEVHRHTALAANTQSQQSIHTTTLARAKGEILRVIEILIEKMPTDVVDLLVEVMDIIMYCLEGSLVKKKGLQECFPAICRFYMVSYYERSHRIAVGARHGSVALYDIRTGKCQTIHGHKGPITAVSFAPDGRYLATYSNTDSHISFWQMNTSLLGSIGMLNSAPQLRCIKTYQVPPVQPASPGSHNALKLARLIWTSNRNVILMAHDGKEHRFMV

binding	Substance
binds	Dmxl1 (mRAVE subunit) (from UniProt Q6PNC0 1-3013)
binds	Rogdi (mRAVE subunit) (from UniProt Q3TDK6 1-287)
binds	Wdr7 (mRAVE subunit) (from UniProt Q920I9 1-1489)
